Test results published in patent US20250221953A1 (The University of Chicago, priority 2022, published 2025).
Some entries share one result that the patent states for a list of compounds. Some compounds share one range, which may span the group rather than tell each member.

Tested on: mouse primary CD8^+ T cells
Experiment: In vitro function of activated mouse primary CD8+ T cells (cytokines, Ki-67, apoptosis, p-CREB)
Assay type: cell-based
Conditions: 20 μM; TNF-α and IFN-γ in CD8+ T cells (FIG. 22E)
Method: For experiments with live/dead criteria, cells were first stained with Fixable Viability Dyes (FVD) (Thermo Fisher Scientific) according to the manufacturer's instructions. Subsequent surface marker staining was performed in Flow Cytometry Staining Buffer (Thermo Fisher Scientific). Intracellular staining for flow panels containing nuclear proteins was performed using the eBioscience FoxP3/Transcription Factor Staining Buffer Set (Thermo Fisher Scientific) according to the manufacturer's instructions. For intracellular staining of cytoplasmic proteins, the Fixation/Permeabilization Solution Kit (BD Biosciences) was used according to the manufacturer's instructions. […] The cell pellets were washed again with FACS buffer, centrifuged at 300×g for 5 minutes, and incubated with antibodies in FACS buffer for 45 minutes-1 hour at room temperature. […] Treatment with sulfosuccinimidyl oleate (SSO) was performed by incubating cells with 100 μM SSO for 24 hours.

Cc1ccc(/C=C/CCCCCCCCCC(=O)O)cc1 [Compound 10]
bioactivity remaining compared with TVA (CD8+ T cell activation): 70-80%
